Data as given in PubChem BioAssay AID1259254 (NCATS, 2017)
This is a random part of about 59,000 reagents tested. Of all reagents, about 1,550 (2.6%) were called active. 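G2 share is only a proxy for re-replication; each gene was hit by three separate siRNAs, and active genes were retested.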 The raw values are shown without normalisation. The numbers tell different reagents against one gene apart. Reagent sequences are not shown. Not given: the amount of reagent.

Purpose: 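Finding genes that stop cells copying their DNA twice in one cycle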 (primary screen)
System: human HCT116 colorectal cancer cells
Reagent: single siRNA against human genes
Time to read-out: 3 days
Detection: 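Nuclei stained with Hoechst and imaged; cell-cycle phase assigned by DNA content; G2 share scaled per plate, non-targeting siRNA 0%, GMNN siRNA 100%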
Direction: G2 robust z-score and G2 cells, % of GMNN control: higher = more G2 cells, more excess DNA replication; raw share of cells in G2: higher = larger share of cells with G2 DNA content
Rule for the call: 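An siRNA counts as active if its G2 robust z-score lies at least 5 MADs above the screen median; here such calls match roughly 38% of GMNN control or more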

gene | reagent | G2 robust z-score | G2 cells, % of GMNN control | raw share of cells in G2 (%) | Outcome
TLCD3B | 1 | 1.96 | 16.8 | 9.69 | inactive
TLCD3B | 2 | 2.63 | 21.5 | 9.82 | inactive
TLCD3B | 3 | -0.431 | -0.0659 | 2.39 | inactive
RPGRIP1 | 1 | 0.647 | 7.52 | 7.31 | inactive
RPGRIP1 | 2 | -0.369 | 0.368 | 4.64 | inactive
RPGRIP1 | 3 | -0.942 | -3.66 | 1.87 | inactive
GBP7 | 1 | -0.203 | 1.54 | 6.57 | inactive
GBP7 | 2 | 0.919 | 9.43 | 8.64 | inactive
GBP7 | 3 | 0.754 | 8.27 | 7.31 | inactive
APLN | 1 | 0.562 | 6.92 | 7.69 | inactive
APLN | 2 | 0.244 | 4.69 | 6.67 | inactive
APLN | 3 | -0.71 | -2.03 | 3.98 | inactive
PCDHA13 | 1 | -0.925 | -3.54 | 4.88 | inactive
PCDHA13 | 2 | -0.681 | -1.83 | 3.79 | inactive
PCDHA13 | 3 | 3.38 | 26.7 | 15.5 | inactive
TBC1D21 | 1 | 0.16 | 4.09 | 5.07 | inactive
TBC1D21 | 2 | 2.39 | 19.8 | 9.59 | inactive
TBC1D21 | 3 | -0.496 | -0.521 | 2.6 | inactive
AURKAIP1 | 1 | -0.0626 | 2.53 | 4.49 | inactive
AURKAIP1 | 2 | -1.65 | -8.66 | 2.9 | inactive
AURKAIP1 | 3 | 5.85 | 44.1 | 21.2 | active
SERPINE2 | 1 | -1.22 | -5.59 | 2.98 | inactive
SERPINE2 | 2 | 0.548 | 6.82 | 6.36 | inactive
SERPINE2 | 3 | -0.684 | -1.84 | 2.94 | inactive
INTS15 | 1 | 0.391 | 5.72 | 4.21 | inactive
INTS15 | 2 | -0.21 | 1.49 | 5.23 | inactive
INTS15 | 3 | 0.569 | 6.97 | 7.73 | inactive
ETFB | 1 | 2.37 | 19.6 | 10.6 | inactive
ETFB | 2 | -0.736 | -2.21 | 4.43 | inactive
ETFB | 3 | 0.0696 | 3.46 | 6.58 | inactive
CCL4 | 1 | 1.88 | 16.2 | 11.9 | inactive
CCL4 | 2 | -0.346 | 0.536 | 4.43 | inactive
CCL4 | 3 | 3.89 | 30.3 | 14.3 | inactive
PI15 | 1 | -0.228 | 1.36 | 4.37 | inactive
PI15 | 2 | -0.035 | 2.72 | 5.58 | inactive
PI15 | 3 | -0.0186 | 2.84 | 4.15 | inactive
RFXAP | 1 | 8.47 | 62.6 | 31.6 | active
RFXAP | 2 | 0.057 | 3.37 | 5.55 | inactive
RFXAP | 3 | -0.778 | -2.5 | 2.45 | inactive
TMEM145 | 1 | 0.224 | 4.55 | 5.3 | inactive
TMEM145 | 2 | 1.02 | 10.1 | 6.97 | inactive
TMEM145 | 3 | -0.796 | -2.63 | 2.47 | inactive
CD164L2 | 1 | -0.119 | 2.13 | 5.55 | inactive
CD164L2 | 2 | 3.22 | 25.6 | 12.6 | inactive
CD164L2 | 3 | 0.225 | 4.55 | 5.39 | inactive
TAS2R41 | 1 | -0.107 | 2.21 | 3.94 | inactive
TAS2R41 | 2 | 1.03 | 10.2 | 7.35 | inactive
TAS2R41 | 3 | 0.283 | 4.96 | 4.96 | inactive
TVP23A | 1 | 0.94 | 9.58 | 7.9 | inactive
TVP23A | 2 | 0.29 | 5.01 | 5.05 | inactive
TVP23A | 3 | -0.497 | -0.531 | 2.78 | inactive
THAP7 | 1 | -0.534 | -0.791 | 4.49 | inactive
THAP7 | 2 | 7.05 | 52.6 | 27.3 | active
THAP7 | 3 | 1.58 | 14.1 | 9.29 | inactive
ARHGEF6 | 1 | -0.411 | 0.0724 | 3.22 | inactive
ARHGEF6 | 2 | 1.2 | 11.4 | 9.52 | inactive
ARHGEF6 | 3 | -0.746 | -2.28 | 3.82 | inactive
TXNDC5 | 1 | -1.2 | -5.46 | 3.16 | inactive
TXNDC5 | 2 | 0.27 | 4.87 | 5.96 | inactive
TXNDC5 | 3 | 3.01 | 24.1 | 13.7 | inactive
DPM3 | 1 | -0.545 | -0.868 | 3.29 | inactive
DPM3 | 2 | 4.45 | 34.3 | 18.7 | inactive
DPM3 | 3 | -0.43 | -0.059 | 3.17 | inactive
NR2F2 | 1 | 1.73 | 15.1 | 10.8 | inactive
NR2F2 | 2 | -0.368 | 0.377 | 4.68 | inactive
NR2F2 | 3 | -0.14 | 1.98 | 4.61 | inactive
ZNF630 | 1 | -0.744 | -2.27 | 1.99 | inactive
ZNF630 | 2 | -0.375 | 0.332 | 6.06 | inactive
ZNF630 | 3 | -0.427 | -0.0345 | 3.62 | inactive
